Reference: PubChem BioAssay AID652272 (Drosophila RNAi Screening Center, 2013)

Test: 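Genes whose knock-down decreases or increases Hedgehog reporter output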 (primary screen)
Cells: Drosophila clone 8 (Cl8) cells
Knock-down reagent: long dsRNA against Drosophila genes
Read-out: 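Plate reader light from a firefly reporter under a ptc promoter fragment that responds to Hedgehog, with Renilla light as transfection reference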
Scale: firefly Hh reporter signal: higher = more ptc reporter light; Renilla reference signal: higher = more Renilla control light
Active means: 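Hit when the z-score averaged over two replicates is under -2 or over +3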
Meaning of the calls: active = hit: reporter lowered or raised; inactive = not a hit
In all, the deposit lists about 21,000 reagents; this is a random part of those that have a named target and a result. In the full data, 503 (2.4%) were called active. 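Raw plate light values, not normalised; calls rest on replicate z-scores that were not deposited; hits include reporter decreases as well as increases.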 The record does not give: the amount of reagent, the time to read-out.

gene knocked down,dsRNA,"firefly Hh reporter signal, replicate 1","firefly Hh reporter signal, replicate 2","firefly Hh reporter signal, replicate 3","Renilla reference signal, replicate 1","Renilla reference signal, replicate 2",Outcome
CG14629,DRSC18476,95605,50145,,6352,1798,inactive
vimar (visceral mesodermal armadillo-repeats),DRSC05026,84247,46048,,3328,1920,inactive
CG10154,DRSC09707,24345,30760,56106,2592,3446,inactive
CG5793,DRSC15874,6.57e5,1.20e5,,43202,743,inactive
CG5885,DRSC02910,1.04e5,54773,,4048,2352,inactive
LManV (Lysosomal alpha-mannosidase V),DRSC03223,70658,70251,,3037,2816,inactive
CG15153,DRSC02454,92759,63803,,2357,5080,inactive
CG33272,DRSC09116,85866,1.42e5,,2579,8455,inactive
CG32687,DRSC18210,81322,1.48e5,,2748,7632,inactive
CG32687,DRSC18237,66104,1.78e5,,2258,6992,inactive
ND-ACP,DRSC08724,76720,41184,,2848,2929,inactive
tna (tonalli),DRSC09053,1.27e5,2.73e5,,7549,9832,inactive
tna (tonalli),DRSC10937,87809,52948,25307,6961,2885,inactive
Cpr30F (Cuticular protein 30F),DRSC02908,87796,86016,,3397,3157,inactive
flr (flare),DRSC09787,1.15e5,71793,,4432,2869,inactive
cort (cortex),DRSC02148,5.24e5,92265,,4290,4290,inactive
gbb (glass bottom boat),DRSC04687,57317,43224,,1083,3571,inactive
CG7536,DRSC20050,1.11e5,68522,,2672,2059,inactive
CG31098,DRSC14259,5.90e5,1.19e5,,25799,3255,inactive
jp (junctophilin),DRSC02213,1.17e5,1.23e5,,4467,5083,inactive
jp (junctophilin),DRSC02744,1.04e5,47269,,3349,4869,inactive
CG11317,DRSC14299,81657,92307,,1840,2444,inactive
Top1 (Topoisomerase 1),DRSC20295,82512,1.41e5,,2583,5829,inactive
CG12581,DRSC12206,1.32e5,1.08e5,,5545,4976,inactive
CG12581,DRSC12207,1.38e5,1.87e5,,4661,5030,inactive
Cpsf100 (Cleavage and polyadenylation specificity factor 100),DRSC14146,70792,1.30e5,,1306,4148,inactive
CG13784,DRSC00974,5.15e5,1.77e5,,25932,7712,inactive
CG13784,DRSC02287,57801,36672,,2560,1564,inactive
CG3529,DRSC10369,87696,42161,,4211,2039,inactive
aub (aubergine),DRSC03486,1.23e5,1.03e5,,4388,4147,inactive
rasp,DRSC08191,91580,27817,,2833,364,inactive
CG43132 (retired record),DRSC19484,88604,1.80e5,,2347,8362,inactive

Laid out differently: results already given
CG7536 [DRSC20050]
- firefly Hh reporter signal, replicate 1: 1.11e5
- firefly Hh reporter signal, replicate 2: 68522
- Renilla reference signal, replicate 1: 2672
- Renilla reference signal, replicate 2: 2059
- Outcome: inactive

CG31098 [DRSC14259]
- firefly Hh reporter signal, replicate 1: 5.90e5
- firefly Hh reporter signal, replicate 2: 1.19e5
- Renilla reference signal, replicate 1: 25799
- Renilla reference signal, replicate 2: 3255
- Outcome: inactive

jp (junctophilin) [DRSC02213]
- firefly Hh reporter signal, replicate 1: 1.17e5
- firefly Hh reporter signal, replicate 2: 1.23e5
- Renilla reference signal, replicate 1: 4467
- Renilla reference signal, replicate 2: 5083
- Outcome: inactive

jp (junctophilin) [DRSC02744]
- firefly Hh reporter signal, replicate 1: 1.04e5
- firefly Hh reporter signal, replicate 2: 47269
- Renilla reference signal, replicate 1: 3349
- Renilla reference signal, replicate 2: 4869
- Outcome: inactive

CG11317 [DRSC14299]
- firefly Hh reporter signal, replicate 1: 81657
- firefly Hh reporter signal, replicate 2: 92307
- Renilla reference signal, replicate 1: 1840
- Renilla reference signal, replicate 2: 2444
- Outcome: inactive

Top1 (Topoisomerase 1) [DRSC20295]
- firefly Hh reporter signal, replicate 1: 82512
- firefly Hh reporter signal, replicate 2: 1.41e5
- Renilla reference signal, replicate 1: 2583
- Renilla reference signal, replicate 2: 5829
- Outcome: inactive

CG12581 [DRSC12206]
- firefly Hh reporter signal, replicate 1: 1.32e5
- firefly Hh reporter signal, replicate 2: 1.08e5
- Renilla reference signal, replicate 1: 5545
- Renilla reference signal, replicate 2: 4976
- Outcome: inactive

CG12581 [DRSC12207]
- firefly Hh reporter signal, replicate 1: 1.38e5
- firefly Hh reporter signal, replicate 2: 1.87e5
- Renilla reference signal, replicate 1: 4661
- Renilla reference signal, replicate 2: 5030
- Outcome: inactive

Cpsf100 (Cleavage and polyadenylation specificity factor 100) [DRSC14146]
- firefly Hh reporter signal, replicate 1: 70792
- firefly Hh reporter signal, replicate 2: 1.30e5
- Renilla reference signal, replicate 1: 1306
- Renilla reference signal, replicate 2: 4148
- Outcome: inactive

CG13784 [DRSC00974]
- firefly Hh reporter signal, replicate 1: 5.15e5
- firefly Hh reporter signal, replicate 2: 1.77e5
- Renilla reference signal, replicate 1: 25932
- Renilla reference signal, replicate 2: 7712
- Outcome: inactive

CG13784 [DRSC02287]
- firefly Hh reporter signal, replicate 1: 57801
- firefly Hh reporter signal, replicate 2: 36672
- Renilla reference signal, replicate 1: 2560
- Renilla reference signal, replicate 2: 1564
- Outcome: inactive

CG3529 [DRSC10369]
- firefly Hh reporter signal, replicate 1: 87696
- firefly Hh reporter signal, replicate 2: 42161
- Renilla reference signal, replicate 1: 4211
- Renilla reference signal, replicate 2: 2039
- Outcome: inactive

Additional records:
gene knocked down,dsRNA,"firefly Hh reporter signal, replicate 1","firefly Hh reporter signal, replicate 2","firefly Hh reporter signal, replicate 3","Renilla reference signal, replicate 1","Renilla reference signal, replicate 2",Outcome
Muc91C (Mucin 91C),DRSC16297,8.94e5,2.04e5,,46372,5607,inactive
CG17361,DRSC10266,54765,,,5107,2021,inactive
rost (rolling stone),DRSC03603,1.20e5,88016,,5011,3557,inactive
Tao,DRSC19573,1.76e5,6.24e5,1.36e5,3312,32982,inactive
Tao,DRSC19574,1.44e5,6.43e5,2.51e5,5588,5248,inactive
Smvt (Sodium-dependent multivitamin transporter),DRSC15426,1.02e5,1.90e5,,3752,7929,inactive
Dek,DRSC07418,90080,64326,,4055,3217,inactive
CG16935,DRSC06638,1.05e5,58020,,2855,4459,inactive
gammaSnap2 (gamma Soluble NSF attachment protein 2),DRSC15992,77659,89601,,2872,2409,inactive
CG4282,DRSC06865,77477,92252,,3776,3603,inactive
eIF3d2 (eukaryotic translation initiation factor 3 subunit d2),DRSC15651,1.66e5,92448,,7117,3665,inactive
veil,DRSC06892,97644,99867,,4909,3796,inactive
Scsalpha2 (Succinyl-coenzyme A synthetase alpha subunit 2),DRSC16003,1.07e5,98491,,3947,3720,inactive
CG12209,DRSC06119,63228,36077,,1632,3096,inactive
gukh (GUK-holder),DRSC14768,4.36e5,72265,,24176,1808,inactive
gukh (GUK-holder),DRSC15806,5.61e5,1.18e5,,32482,3285,inactive
gukh (GUK-holder),DRSC15944,1.23e5,61469,,5216,2752,inactive
pn (prune),DRSC18822,1.05e5,85880,,2560,2742,inactive
Cdc16 (Cell division cycle 16),DRSC16920,4.93e5,89914,,23612,2800,inactive
His4r (Histone H4 replacement),DRSC16703,22803,33136,,851,886,inactive
lncRNA:CR9162 (long non-coding RNA:CR9162),DRSC03151,1.10e5,1.11e5,,5164,4557,inactive
Ctr9,DRSC08562,1.37e5,85831,,4646,2818,inactive
CG5913,DRSC15916,5.60e5,1.08e5,,30352,2832,inactive
CG7386,DRSC10832,64652,54423,,6258,4394,inactive
CG14088,DRSC10092,1.03e5,96772,,3783,2583,inactive
PolZ2 (DNA polymerase zeta subunit 2),DRSC12325,75000,1.09e5,,2384,3237,inactive
GstZ2 (Glutathione S transferase Z2),DRSC16479,1.27e5,84685,,5175,3218,inactive
Hr4 (Hormone receptor 4),DRSC18495,2.10e5,1.34e5,3.69e5,2119,5328,active
Hr4 (Hormone receptor 4),DRSC18599,87024,89538,,3878,4224,inactive
Syp (Syncrip),DRSC13444,44656,2.01e5,,9513,4816,inactive
Syp (Syncrip),DRSC15286,1.49e5,71477,,5815,3353,inactive
CG11449,DRSC11662,60301,82882,,1366,2632,inactive
"Ing3 (Inhibitor of growth family, member 3)",DRSC20002,1.17e5,4.59e5,64481,3283,29034,inactive
CG13239,DRSC11694,75442,1.07e5,,2490,2808,inactive
Nmdmc (NAD-dependent methylenetetrahydrofolate dehydrogenase),DRSC16760,1.19e5,1.04e5,,4940,3830,inactive
CG11550,DRSC14326,77237,2.30e5,,2984,8986,inactive
CG33143,DRSC04151,1.03e5,92912,,2134,7826,inactive
CG33143,DRSC04454,82359,52817,,1456,4887,inactive
Nepl15 (Neprilysin-like 15),DRSC15630,95489,76945,,4163,3325,inactive
yps (ypsilon schachtel),DRSC11411,44842,40580,32277,6084,2981,inactive
Epg5 (ectopic P-granules autophagy protein 5),DRSC14778,8.23e5,1.21e5,,44489,3584,inactive
